# Reference: patent publication US7888315B2, “Use of aspartic proteases in cosmetics and therapeutics” (L'Oreal, priority 2002, dated 2011)
# B1: activated SASPase: truncated 12 kD activated form of the aspartic acid protease SASPase, sequence SEQ ID NO: 6 (protein, listed as Homo Sapiens)
# chain: ANSMGKGYYLKGKIGKVPVRFLVDSGAQVSVVHPNLWEEVTDGDLDTLQPFENVVKVANGAEMKILGVWDTAVSLGKLKLKAQFLVANASAEEAIIGTDVLQDHNAILDFEHRTCTLKGKKFRLLPVGGSLEDEFDLE
# Tested on: oxidized beta-chain of insulin
# Assay: Hydrolysis of the oxidized beta-chain of insulin followed by HPLC
# Format: biochemical
# Procedure: The oxidized beta-chain of insulin (Sigma) is used as substrate. The concentration is 50 μg in 1.5 ml of 0.1 M acetate buffer, pH 5.0. 50 μl of 12 kD SASPase (SEQ ID NO: 6) (approximately 1 mg/ml) purified by gel filtration are added so as to initialize the hydrolysis. Controls without enzyme or without substrate are used. Over time (1 h to 24 h at 37° C.), HPLCs are performed in order to follow the hydrolysis. The peaks that appear rapidly correspond to the main hydrolysis sites and those that only appear after 24 h correspond to the secondary sites. The peaks are collected after they have been fractionated, and are N-terminal sequences (EDMAN sequencing, Pasteur Institute).
molecule,measurement,setting,value
B1,secondary hydrolysis sites in insulin beta-chain,peaks that appear only after 24 h,L/Y and Y/L
same,main hydrolysis site in insulin beta-chain,"peaks that appear rapidly, Edman sequencing",E/A
